Laboratory results from article PMC4988710, “A Model for Dimerization of the SOX Group E Transcription Factor Family”.
The exact form of at least one protein or probe is not confirmed. At least one verdict was read from the data and is not stated in words by the source.

Protein sequences, listed by entry. Tags and fused reporters are not part of them. Residues count along the entry.
UniProt P48436, 71-184, stated change not applied: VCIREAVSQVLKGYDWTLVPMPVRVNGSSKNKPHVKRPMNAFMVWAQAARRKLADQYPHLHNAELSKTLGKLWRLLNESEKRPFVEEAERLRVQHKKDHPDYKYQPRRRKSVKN

Experiments:
Experiment in all cases: EMSA
Conditions in all cases: dimerization lost, one- and two-site occupancy; 10 mM sodium phosphate pH 6.0, 100 mM NaCl, 5 mM EDTA, on ice 30 min (1 h for 32P titrations); 9 nM DNA for Kd, 2 uM DNA for SYBR Green EMSA; recombinant protein; residues 71-184; protein details: 6xHis
[1] = molecular target: SOX9 D-HMG L81 mutant (Homo sapiens) (UniProt P48436)
[2] = molecular target: SOX9 D-HMG V77 mutant (Homo sapiens) (UniProt P48436)
[3] = molecular target: SOX9 D-HMG A76 mutant (Homo sapiens) (UniProt P48436)
[4] = molecular target: SOX9 D-HMG I73 mutant (Homo sapiens) (UniProt P48436)
[5] = molecular target: SOX9 D-HMG V80 mutant (Homo sapiens) (UniProt P48436)
[6] = molecular target: SOX9 D-HMG Y84 mutant (Homo sapiens) (UniProt P48436)

Measured: binding result

GGGATCCTACACAAAGCCGGCTTTGTGTAGGATCCC (double strand) [CC36]
binds: [1] | [2] | [3] | [4] | [5] | [6]
